Drawing on ChEMBL document CHEMBL4196091 (Eur J Med Chem, 2018), this text covers IC50, selectivity ratio and IT50 for 1 molecule.

Sequences of proteins named here, by UniProt entry; tags and fusion partners are left off. A change or cut given only in a name is not applied to a line headed by its entry.
UniProt Q9H4B7: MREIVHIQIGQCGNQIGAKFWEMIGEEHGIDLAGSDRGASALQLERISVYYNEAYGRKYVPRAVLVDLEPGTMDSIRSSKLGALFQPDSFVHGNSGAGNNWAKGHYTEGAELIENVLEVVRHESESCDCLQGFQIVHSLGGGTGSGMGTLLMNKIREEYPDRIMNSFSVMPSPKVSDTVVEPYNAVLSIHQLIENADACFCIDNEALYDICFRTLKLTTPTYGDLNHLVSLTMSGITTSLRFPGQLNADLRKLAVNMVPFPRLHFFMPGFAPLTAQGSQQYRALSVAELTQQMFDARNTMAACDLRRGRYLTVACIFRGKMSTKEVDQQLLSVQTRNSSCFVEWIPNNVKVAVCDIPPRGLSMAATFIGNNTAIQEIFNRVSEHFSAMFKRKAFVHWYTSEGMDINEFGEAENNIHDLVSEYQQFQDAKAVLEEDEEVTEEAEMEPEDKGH
UniProt P0DPH7: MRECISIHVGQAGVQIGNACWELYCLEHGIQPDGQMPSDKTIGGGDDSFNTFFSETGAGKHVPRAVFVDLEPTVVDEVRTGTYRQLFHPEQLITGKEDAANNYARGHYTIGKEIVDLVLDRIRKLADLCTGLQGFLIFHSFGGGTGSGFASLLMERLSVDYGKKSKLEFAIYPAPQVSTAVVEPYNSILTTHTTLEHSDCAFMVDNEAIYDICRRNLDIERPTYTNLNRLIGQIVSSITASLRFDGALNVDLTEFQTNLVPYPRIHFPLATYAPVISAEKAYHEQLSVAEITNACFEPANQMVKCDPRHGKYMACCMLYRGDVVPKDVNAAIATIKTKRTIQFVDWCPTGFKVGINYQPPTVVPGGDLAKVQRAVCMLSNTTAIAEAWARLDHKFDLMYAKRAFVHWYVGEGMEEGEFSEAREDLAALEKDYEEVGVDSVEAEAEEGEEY
UniProt P68366: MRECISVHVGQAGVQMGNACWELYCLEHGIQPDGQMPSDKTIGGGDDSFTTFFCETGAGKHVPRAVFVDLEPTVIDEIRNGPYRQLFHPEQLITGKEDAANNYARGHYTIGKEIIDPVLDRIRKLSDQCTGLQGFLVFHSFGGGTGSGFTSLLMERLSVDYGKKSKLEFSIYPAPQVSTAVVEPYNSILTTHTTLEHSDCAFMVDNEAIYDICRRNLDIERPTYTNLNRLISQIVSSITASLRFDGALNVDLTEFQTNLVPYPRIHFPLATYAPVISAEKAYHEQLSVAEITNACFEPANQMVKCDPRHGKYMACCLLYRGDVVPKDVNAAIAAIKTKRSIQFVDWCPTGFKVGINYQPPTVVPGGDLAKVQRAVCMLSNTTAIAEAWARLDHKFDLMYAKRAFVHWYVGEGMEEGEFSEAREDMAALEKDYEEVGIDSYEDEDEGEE
UniProt Q13509: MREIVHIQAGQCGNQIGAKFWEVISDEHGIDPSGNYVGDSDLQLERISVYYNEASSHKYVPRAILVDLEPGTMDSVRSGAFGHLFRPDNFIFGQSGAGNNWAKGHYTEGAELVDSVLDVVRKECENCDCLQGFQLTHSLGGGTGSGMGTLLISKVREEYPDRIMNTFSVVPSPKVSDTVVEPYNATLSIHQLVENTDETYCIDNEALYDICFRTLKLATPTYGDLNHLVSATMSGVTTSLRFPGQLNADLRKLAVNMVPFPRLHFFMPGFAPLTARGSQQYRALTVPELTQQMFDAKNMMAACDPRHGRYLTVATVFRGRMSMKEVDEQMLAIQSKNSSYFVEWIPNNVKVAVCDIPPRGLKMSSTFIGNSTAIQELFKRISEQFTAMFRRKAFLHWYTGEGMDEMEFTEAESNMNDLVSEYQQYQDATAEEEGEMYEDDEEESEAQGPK
UniProt Q71U36: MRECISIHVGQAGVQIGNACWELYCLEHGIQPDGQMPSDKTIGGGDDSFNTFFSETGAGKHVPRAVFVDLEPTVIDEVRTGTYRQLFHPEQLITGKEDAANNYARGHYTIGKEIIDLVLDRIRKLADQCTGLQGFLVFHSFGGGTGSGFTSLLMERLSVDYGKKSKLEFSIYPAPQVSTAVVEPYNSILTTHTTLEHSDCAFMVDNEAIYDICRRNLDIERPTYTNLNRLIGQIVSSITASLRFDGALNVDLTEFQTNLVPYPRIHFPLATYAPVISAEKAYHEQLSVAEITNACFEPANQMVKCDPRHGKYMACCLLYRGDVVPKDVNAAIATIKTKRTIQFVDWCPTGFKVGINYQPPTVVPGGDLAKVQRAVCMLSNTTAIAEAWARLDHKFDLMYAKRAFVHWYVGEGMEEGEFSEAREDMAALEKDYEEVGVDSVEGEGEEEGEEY
UniProt P04350: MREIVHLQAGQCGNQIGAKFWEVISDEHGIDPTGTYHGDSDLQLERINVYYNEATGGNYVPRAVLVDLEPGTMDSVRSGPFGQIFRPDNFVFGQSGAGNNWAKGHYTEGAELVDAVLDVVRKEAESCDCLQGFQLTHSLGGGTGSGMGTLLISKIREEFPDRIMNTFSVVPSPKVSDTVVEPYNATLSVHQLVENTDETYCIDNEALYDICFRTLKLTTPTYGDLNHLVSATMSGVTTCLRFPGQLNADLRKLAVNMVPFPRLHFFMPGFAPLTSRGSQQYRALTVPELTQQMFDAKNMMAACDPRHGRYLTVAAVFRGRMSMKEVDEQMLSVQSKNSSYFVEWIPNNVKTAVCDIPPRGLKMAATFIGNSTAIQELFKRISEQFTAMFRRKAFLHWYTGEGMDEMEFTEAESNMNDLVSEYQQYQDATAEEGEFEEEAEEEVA
UniProt Q3ZCM7: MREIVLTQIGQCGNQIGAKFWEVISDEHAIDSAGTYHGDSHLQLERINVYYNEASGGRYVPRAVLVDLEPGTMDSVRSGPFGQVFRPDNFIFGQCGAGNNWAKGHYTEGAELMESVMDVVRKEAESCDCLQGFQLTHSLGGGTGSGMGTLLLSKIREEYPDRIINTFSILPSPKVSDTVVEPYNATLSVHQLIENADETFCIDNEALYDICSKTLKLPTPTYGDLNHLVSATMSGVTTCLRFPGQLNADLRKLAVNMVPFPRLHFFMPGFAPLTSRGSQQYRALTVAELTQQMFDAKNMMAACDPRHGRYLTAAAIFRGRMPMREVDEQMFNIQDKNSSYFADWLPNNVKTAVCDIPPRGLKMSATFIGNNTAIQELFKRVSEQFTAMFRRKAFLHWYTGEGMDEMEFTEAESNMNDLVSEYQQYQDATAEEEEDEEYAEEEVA
UniProt P07437: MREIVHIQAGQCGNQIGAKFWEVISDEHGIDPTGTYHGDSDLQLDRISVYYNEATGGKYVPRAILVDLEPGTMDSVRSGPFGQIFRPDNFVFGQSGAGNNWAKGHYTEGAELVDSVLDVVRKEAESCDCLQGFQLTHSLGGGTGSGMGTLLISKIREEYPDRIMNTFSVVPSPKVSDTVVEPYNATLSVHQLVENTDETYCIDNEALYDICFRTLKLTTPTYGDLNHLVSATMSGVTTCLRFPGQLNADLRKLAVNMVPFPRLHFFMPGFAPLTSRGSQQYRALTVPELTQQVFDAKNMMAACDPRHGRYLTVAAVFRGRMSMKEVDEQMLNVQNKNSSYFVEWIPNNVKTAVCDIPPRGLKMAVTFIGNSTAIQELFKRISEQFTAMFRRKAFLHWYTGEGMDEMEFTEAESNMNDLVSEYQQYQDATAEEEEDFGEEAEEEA
UniProt P68363: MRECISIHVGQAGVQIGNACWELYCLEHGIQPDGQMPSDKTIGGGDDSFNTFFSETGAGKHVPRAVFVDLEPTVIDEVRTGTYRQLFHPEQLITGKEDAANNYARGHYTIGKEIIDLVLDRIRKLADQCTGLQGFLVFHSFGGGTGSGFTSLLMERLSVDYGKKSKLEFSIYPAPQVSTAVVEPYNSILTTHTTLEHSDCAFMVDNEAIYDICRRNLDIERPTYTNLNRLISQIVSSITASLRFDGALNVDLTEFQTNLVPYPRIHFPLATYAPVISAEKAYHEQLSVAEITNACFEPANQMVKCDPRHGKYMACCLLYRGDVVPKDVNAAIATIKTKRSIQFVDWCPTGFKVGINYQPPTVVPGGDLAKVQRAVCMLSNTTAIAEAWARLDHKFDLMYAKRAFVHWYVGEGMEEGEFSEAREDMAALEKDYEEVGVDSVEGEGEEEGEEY
UniProt Q9BQE3: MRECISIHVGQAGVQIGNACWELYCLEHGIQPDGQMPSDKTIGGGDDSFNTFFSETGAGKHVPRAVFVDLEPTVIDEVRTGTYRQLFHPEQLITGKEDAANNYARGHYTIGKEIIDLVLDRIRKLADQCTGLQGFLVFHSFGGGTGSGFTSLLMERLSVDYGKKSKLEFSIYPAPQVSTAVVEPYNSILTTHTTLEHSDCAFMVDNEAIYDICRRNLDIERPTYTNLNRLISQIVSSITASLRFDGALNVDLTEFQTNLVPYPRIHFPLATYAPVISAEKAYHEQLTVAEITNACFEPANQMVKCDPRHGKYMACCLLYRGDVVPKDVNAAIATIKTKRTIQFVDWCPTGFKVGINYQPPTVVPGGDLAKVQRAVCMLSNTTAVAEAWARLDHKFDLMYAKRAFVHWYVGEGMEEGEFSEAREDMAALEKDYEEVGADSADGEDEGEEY
UniProt Q6PEY2: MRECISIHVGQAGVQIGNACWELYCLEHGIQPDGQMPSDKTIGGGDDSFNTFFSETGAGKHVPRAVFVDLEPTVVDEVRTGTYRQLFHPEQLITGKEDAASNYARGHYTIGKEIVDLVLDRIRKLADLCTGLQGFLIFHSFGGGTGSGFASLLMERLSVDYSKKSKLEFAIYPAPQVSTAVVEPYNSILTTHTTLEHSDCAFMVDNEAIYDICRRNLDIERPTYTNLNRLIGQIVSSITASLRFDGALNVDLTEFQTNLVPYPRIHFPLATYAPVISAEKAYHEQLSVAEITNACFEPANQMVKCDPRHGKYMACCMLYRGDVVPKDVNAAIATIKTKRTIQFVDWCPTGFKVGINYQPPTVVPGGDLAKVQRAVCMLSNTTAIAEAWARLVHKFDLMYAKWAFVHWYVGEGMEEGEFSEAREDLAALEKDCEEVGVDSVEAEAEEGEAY
UniProt Q13885: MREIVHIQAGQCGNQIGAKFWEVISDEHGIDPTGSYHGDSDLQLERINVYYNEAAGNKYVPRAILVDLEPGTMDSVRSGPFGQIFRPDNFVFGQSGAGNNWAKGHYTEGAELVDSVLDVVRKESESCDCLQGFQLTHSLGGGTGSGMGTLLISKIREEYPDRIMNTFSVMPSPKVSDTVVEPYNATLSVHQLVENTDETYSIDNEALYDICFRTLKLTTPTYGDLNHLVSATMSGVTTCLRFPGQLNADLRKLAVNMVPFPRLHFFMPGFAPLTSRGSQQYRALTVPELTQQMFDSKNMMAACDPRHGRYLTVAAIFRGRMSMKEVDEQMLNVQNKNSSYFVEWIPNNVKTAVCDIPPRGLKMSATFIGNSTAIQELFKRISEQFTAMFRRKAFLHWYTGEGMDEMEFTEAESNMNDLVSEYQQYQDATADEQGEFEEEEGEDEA
UniProt Q9BVA1: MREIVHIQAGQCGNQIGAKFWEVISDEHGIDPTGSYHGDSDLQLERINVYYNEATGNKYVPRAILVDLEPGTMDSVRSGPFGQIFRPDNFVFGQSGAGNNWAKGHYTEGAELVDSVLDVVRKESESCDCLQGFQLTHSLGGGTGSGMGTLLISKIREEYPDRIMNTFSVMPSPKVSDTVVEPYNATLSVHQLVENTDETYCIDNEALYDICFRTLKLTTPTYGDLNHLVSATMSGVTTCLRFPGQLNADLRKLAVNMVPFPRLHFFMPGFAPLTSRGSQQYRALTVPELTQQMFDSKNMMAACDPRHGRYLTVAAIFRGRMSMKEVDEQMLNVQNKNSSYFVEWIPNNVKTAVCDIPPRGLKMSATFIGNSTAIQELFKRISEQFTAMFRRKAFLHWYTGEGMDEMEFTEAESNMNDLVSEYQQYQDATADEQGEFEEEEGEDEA
UniProt Q9BUF5: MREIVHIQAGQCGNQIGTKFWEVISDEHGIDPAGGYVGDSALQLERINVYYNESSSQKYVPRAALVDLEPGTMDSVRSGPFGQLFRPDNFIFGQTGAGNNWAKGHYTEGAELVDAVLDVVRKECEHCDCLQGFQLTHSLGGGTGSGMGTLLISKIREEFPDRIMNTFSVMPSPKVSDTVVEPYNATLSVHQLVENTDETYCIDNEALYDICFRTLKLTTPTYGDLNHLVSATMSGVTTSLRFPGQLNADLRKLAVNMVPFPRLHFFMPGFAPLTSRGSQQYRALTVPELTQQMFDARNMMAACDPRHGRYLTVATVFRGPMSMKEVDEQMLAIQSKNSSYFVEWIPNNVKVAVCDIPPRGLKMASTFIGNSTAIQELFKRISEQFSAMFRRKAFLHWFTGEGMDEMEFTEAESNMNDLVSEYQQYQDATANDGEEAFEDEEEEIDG

The subject of data set [1] is HT-29. The data set can be described thus: Antiproliferative activity against human HT-29 cells after 2 days by MTT assay. The data set is classed as functional, cell-based. To be noted: HT-29, 48 h.
In data set [2] the test system is MCF7. The data set can be described thus: Antiproliferative activity against human MCF7 cells after 2 days by MTT assay. The data set is classed as functional, cell-based. To be noted: MCF7, 48 h.
The subject of data set [3] is A549. In words: Antiproliferative activity against human A549 cells after 2 days by MTT assay. The data set is classed as functional, cell-based. Conditions: A549, 48 h. Background: Formazan colour is commonly taken as a measure of viable cells.
Data set [4] has as its system HEK293. In words: Antiproliferative activity against HEK293 cells after 2 days by MTT assay. The format is ADME, cell-based. Conditions: Homo sapiens, HEK293, 48 h.
A short description of data set [5]: Selectivity index, ratio of IC50 for HEK293 cells to IC50 for human HT-29 cells.
Data set [6] can be described thus: Selectivity index, ratio of IC50 for HEK293 cells to IC50 for human MCF7 cells.
Data set [7] can be described thus: Selectivity index, ratio of IC50 for HEK293 cells to IC50 for human A549 cells.
The target of data set [8] is Tubulin (Homo sapiens) (UniProt P68371+Q9H4B7+P0DPH7+P68366+Q13509+Q71U36+P04350+Q3ZCM7+P07437+P68363+Q9BQE3+Q6PEY2+Q13885+Q9BVA1+Q9BUF5). The data set can be described thus: Inhibition of tubulin polymerization (unknown origin) in glycerol-assembly buffer assessed as time required to reach 50% of polymerization equilibrium at 27.5 uM measured every 30 secs for 2 hrs in presence of GTP (reference value: 16.5 +/- 0.8 min). The format is protein-complex assay.

A word on the IC50: it is the midpoint of a concentration-inhibition curve. Lower therefore signals greater potency in that assay.

Consider `COc1cc2c(c(OC)c1OC)-c1ccc(OC)c(=O)cc1[C@@H](N)CC2`, for which the IC50 in data set [1] was determined as 12.4 nM; in data set [2], 15.5 nM; in data set [3] it was 16.8 nM; in data set [4] it was 25.1 nM. Besides, the selectivity ratio amounted to 2 in data set [5], 1.6 in data set [6] and 1.5 in data set [7]. For the same molecule, in data set [8], the IT50 is 27 min.
